Measured values taken from the supplement of paper PMC10849652.
This is one part of the list.

The chains behind the UniProt entries cited, without tags or fusion partners. Where a name states a change or a piece, a line headed by the entry shows the natural chain unless it says otherwise.
UniProt Q9BXW7: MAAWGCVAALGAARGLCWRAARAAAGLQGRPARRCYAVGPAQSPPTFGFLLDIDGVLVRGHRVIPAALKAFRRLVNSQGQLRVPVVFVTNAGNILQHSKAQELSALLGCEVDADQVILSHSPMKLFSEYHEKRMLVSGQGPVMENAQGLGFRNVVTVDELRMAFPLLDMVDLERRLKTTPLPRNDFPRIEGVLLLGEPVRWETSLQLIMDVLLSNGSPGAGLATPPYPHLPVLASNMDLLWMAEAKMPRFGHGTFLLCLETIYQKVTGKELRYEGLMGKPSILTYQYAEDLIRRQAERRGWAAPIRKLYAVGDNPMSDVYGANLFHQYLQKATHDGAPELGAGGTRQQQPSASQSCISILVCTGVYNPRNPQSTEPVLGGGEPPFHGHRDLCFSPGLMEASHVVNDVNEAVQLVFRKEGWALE
UniProt Q00403, whole entry, looked up: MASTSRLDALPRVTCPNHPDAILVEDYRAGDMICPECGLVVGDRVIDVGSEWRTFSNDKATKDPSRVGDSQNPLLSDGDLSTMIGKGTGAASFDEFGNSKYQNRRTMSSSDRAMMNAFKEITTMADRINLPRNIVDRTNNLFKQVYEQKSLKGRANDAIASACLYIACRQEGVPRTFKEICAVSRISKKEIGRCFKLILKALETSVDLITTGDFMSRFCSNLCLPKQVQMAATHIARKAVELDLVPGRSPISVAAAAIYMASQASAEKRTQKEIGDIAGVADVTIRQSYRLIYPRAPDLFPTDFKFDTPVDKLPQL
UniProt Q13888: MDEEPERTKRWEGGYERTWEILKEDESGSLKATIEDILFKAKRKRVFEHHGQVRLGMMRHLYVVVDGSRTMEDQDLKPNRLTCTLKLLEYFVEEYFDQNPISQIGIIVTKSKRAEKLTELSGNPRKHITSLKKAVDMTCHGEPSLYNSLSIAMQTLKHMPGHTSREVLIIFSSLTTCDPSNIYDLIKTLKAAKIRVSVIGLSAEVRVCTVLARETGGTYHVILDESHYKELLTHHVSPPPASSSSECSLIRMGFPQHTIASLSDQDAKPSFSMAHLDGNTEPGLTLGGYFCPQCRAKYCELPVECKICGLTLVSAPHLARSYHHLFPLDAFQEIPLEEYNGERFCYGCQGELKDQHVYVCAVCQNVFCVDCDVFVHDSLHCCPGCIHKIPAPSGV
UniProt P51610: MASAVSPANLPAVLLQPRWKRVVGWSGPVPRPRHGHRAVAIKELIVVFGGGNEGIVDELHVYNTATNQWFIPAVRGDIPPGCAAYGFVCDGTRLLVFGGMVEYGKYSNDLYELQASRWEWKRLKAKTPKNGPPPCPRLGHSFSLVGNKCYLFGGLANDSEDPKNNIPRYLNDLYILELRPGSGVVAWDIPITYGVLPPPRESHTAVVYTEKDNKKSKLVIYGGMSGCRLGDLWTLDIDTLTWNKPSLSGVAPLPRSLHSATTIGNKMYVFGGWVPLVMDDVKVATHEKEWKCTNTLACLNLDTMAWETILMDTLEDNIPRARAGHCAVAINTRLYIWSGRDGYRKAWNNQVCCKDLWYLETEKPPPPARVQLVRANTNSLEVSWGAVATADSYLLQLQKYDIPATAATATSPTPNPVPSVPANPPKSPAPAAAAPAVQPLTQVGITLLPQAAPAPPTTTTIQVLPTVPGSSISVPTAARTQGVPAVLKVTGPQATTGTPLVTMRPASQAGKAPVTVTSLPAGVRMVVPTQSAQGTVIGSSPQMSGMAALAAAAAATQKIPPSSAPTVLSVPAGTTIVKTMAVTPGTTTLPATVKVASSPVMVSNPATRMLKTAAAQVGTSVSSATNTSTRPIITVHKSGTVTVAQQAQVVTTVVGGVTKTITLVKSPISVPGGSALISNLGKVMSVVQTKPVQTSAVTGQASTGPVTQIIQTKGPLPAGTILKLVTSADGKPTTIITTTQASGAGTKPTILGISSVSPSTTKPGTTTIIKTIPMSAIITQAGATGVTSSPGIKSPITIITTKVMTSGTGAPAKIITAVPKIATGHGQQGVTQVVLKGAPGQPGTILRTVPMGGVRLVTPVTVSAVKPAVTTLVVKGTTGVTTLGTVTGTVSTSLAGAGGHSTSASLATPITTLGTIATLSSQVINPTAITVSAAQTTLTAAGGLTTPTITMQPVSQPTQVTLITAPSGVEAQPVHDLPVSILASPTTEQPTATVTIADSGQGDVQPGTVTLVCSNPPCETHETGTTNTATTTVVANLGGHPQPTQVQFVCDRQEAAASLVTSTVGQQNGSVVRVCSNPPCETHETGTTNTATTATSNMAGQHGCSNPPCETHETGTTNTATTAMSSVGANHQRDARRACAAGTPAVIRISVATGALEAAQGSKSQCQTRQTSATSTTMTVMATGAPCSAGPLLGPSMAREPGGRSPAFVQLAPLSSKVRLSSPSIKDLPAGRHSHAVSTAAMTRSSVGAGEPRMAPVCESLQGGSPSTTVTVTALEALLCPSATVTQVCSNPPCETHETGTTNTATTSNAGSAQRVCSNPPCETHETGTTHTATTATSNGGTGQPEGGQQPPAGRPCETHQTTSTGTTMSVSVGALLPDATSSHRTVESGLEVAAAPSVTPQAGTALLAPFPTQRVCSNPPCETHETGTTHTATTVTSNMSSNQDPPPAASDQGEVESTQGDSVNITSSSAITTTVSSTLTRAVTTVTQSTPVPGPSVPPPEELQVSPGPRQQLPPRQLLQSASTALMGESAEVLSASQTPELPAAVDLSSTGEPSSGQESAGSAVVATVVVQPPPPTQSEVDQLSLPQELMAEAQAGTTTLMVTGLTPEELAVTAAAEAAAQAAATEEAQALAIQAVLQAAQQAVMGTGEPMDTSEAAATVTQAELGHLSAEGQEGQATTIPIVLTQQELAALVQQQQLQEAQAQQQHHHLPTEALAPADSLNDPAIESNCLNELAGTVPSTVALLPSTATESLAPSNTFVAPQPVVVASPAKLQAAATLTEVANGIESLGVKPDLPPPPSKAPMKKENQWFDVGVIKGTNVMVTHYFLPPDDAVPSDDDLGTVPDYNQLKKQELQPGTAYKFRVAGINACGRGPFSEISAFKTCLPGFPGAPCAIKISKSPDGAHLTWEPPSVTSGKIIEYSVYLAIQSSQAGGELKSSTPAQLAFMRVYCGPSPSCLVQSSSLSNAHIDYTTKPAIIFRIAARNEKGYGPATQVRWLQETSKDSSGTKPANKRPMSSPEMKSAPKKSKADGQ
UniProt P69905, whole entry, looked up: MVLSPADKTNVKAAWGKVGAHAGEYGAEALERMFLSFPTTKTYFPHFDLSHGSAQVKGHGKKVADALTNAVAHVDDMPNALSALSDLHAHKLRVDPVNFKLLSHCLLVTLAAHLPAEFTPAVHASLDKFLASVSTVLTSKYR
UniProt Q8NEC7: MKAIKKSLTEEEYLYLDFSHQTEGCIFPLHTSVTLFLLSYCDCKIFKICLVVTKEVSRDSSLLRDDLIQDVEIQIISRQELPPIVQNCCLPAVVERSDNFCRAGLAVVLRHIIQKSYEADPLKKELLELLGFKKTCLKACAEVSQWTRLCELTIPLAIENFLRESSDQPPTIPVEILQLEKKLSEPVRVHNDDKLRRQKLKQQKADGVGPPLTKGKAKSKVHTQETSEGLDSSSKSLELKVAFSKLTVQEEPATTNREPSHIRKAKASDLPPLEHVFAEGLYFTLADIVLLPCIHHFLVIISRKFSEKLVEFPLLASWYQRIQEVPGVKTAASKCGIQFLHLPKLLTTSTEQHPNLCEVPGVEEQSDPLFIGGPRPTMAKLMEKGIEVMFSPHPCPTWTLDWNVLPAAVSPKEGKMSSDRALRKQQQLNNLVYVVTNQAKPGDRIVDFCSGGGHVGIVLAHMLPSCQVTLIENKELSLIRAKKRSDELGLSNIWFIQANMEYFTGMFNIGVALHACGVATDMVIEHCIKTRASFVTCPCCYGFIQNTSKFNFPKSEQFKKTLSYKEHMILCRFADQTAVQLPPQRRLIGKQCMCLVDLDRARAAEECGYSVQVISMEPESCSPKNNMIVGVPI
UniProt Q96CS2: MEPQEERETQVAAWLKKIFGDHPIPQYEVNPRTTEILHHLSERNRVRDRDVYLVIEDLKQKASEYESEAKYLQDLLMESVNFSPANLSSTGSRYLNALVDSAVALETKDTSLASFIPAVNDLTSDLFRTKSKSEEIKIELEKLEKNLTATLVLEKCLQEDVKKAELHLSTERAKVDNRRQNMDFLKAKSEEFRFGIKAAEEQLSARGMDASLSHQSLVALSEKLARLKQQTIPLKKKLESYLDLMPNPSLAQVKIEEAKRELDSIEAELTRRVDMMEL

Key:
Assay in all cases: log2 fold change, soluble protein after heating vs DMSO (PISA); higher = thermal stabilisation; K562 cells, 10 uM, 30 min; active = over 0.2 and 3.5 SD of the protein, either way, in both replicates (recomputed)
[1] = compound: C1=CC=C(C=C1)[C@H](COC2=CC3=C(C=C2)NC(=O)N3)NC(=O)C4=CC=CN(C4=O)CC5=CC(=C(C=C5)F)F
Summary of the method: (§1)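 Values are thermal stability changes relative to control samples and are taken from duplicates. They are stated as log2 fold changes. Before quantification by TMTpro 16plex LC-MS/MS with equalised channel sums, K562 cells at 2×10^6 cells/mL were treated with 10 μM compound for 30 min, heated in aliquots for 3 min across 48°C-58°C, pooled, extracted in PBS with 0.5% NP-40 at 4°C, and centrifuged at 21,000xg for 90 min to give the soluble supernatant.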

[2] = compound: CC1=C(SC2=C1C(=N[C@H](C3=NN=C(N32)C)CC(=O)N)C4=CC=C(C=C4)Cl)C
Summary of the method: as §1

[3] = compound: CC1=C2C(=CC=C1)N=C(N(C2=O)C3=CC=CC=C3C)CN4C=NC5=C(N=CN=C54)N
Summary of the method: as §1

[4] = compound: Cc1sc2c(c1C)C(c1ccc(Cl)cc1)=N[C@@H](CC(=O)OC(C)(C)C)c1nnc(C)n1-2
Summary of the method: as §1

[5] = compound: c1ccc([C@@H]2C[C@H]2NC2CCNCC2)cc1
Summary of the method: as §1

Measured: log2 fold change

HDHD5 (UniProt Q9BXW7)
inactive: [1] -0.073 | [2] 0.043 | [3] 0.066 | [4] 0.021 | [5] -0.02

GSTZ1 (UniProt G3V4T6)
inactive: [1] -0.034 | [2] 0.093 | [3] 0.091 | [4] -0.027 | [5] 0

GTF2B (UniProt Q00403)
inactive: [1] -0.036 | [2] 0.007 | [3] 0.154 | [4] 0.017 | [5] -0.002

Quoted at random: 2 records from the list.
HDHD5 (UniProt Q9BXW7)
inactive: [1] -0.073 | [2] 0.043 | [3] 0.066 | [4] 0.021 | [5] -0.02

GSTZ1 (UniProt G3V4T6)
inactive: [1] -0.034 | [2] 0.093 | [3] 0.091 | [4] -0.027 | [5] 0

(next part)

HERC1 (UniProt Q15751)
inactive: [1] -0.009 | [2] 0.012 | [3] 0.036 | [4] 0.007 | [5] 0

GTF2H2 (UniProt Q13888)
inactive: [1] 0.033 | [2] -0.013 | [3] 0.047 | [4] -0.001 | [5] -0.004

HCFC1 isoform 4 (UniProt P51610)
inactive: [1] -0.069 | [2] 0.06 | [3] 0.036 | [4] -0.004 | [5] -0.046

HBA1 (UniProt P69905)
inactive: [1] -0.003 | [2] 0.163 | [3] 0.005 | [4] -0.167 | [5] -0.023

GSTCD (UniProt Q8NEC7)
inactive: [1] 0 | [2] 0.039 | [3] 0.139 | [4] 0.13 | [5] -0.091

HAUS1 (UniProt Q96CS2)
inactive: [1] 0.052 | [2] -0.065 | [3] 0.071 | [4] 0.098 | [5] -0.007
